Laboratory results: paper PMC6219832
No constants are given. Whether binding was seen depends on the method and setting. For part of these data: Binding seen in cells or lysates may run through a third protein. Some results given as binding are weak or reduced against the parent protein; the word gives no strength. For part of these data: Tags and fused reporters may be left off the sequences shown. Values belong to the molecule of their own block, whether it stands above or below them.

Amino acid sequences for entries named in this document (tags omitted).
UniProt O14744: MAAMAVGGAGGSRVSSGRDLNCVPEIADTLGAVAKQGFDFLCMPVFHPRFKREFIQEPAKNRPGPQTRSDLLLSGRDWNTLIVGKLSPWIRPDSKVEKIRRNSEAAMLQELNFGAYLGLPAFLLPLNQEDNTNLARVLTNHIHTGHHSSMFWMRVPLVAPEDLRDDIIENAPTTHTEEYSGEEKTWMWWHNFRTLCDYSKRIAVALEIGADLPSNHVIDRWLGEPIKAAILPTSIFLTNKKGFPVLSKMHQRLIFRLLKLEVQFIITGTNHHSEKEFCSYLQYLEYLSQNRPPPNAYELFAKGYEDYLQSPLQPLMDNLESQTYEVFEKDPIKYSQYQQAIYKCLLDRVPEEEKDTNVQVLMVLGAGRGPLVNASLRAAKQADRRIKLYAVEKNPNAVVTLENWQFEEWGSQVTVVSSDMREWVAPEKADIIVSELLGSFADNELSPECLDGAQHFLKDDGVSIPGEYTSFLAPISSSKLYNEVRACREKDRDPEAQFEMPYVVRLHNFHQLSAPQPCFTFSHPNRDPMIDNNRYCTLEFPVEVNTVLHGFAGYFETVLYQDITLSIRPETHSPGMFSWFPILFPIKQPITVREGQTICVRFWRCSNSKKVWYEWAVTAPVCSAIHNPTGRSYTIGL

Experiments:
[1] = target: T1, Flag-DUSP14 (3R→K) mutant, expressed in HEK293T cells (human) (UniProt O95147); test: co-IP; HEK293T cells cotransfected with Myc-PRMT5 plus Flag-DUSP14 wild-type or 3R→K; anti-Flag immunoprecipitation, immunoblot with anti-PRMT5
T1 sequence: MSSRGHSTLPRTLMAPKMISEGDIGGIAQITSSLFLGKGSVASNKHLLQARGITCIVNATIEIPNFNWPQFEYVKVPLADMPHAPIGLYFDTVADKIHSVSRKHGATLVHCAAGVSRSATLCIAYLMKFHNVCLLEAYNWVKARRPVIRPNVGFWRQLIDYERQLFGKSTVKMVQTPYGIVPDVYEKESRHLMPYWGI

[2] = target: T2, Flag-DUSP14 (wild-type), expressed in HEK293T cells (human) (UniProt O95147); test: as above
T2 sequence: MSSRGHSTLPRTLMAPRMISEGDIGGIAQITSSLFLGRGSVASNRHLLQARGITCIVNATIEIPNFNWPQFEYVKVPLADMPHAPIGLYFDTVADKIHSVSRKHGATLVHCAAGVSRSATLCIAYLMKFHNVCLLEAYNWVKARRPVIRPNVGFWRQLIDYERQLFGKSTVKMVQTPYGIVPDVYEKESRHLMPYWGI

[3] = target: T2, Flag-DUSP14 (wild-type), expressed in HEK293T cells (human); test: proximity ligation; in situ PLA (Duolink) in cotransfected HEK293T cells with anti-Flag and anti-Myc antibodies; proximity <40 nm
[4] = target: T3, Myc-DUSP14, expressed in HEK293T cells (human) (UniProt O95147); test: co-IP; HEK293T cells cotransfected with Myc-DUSP14 and Flag-PRMT5; lysates immunoprecipitated with anti-Flag or anti-DUSP14 antibody, immunoblot
T3 sequence: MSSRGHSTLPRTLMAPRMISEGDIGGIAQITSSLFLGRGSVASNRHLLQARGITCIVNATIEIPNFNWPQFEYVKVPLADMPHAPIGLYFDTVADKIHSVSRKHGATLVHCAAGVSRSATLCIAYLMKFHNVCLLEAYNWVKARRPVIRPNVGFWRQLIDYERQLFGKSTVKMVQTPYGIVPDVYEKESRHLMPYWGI

[5] = target: T3, Myc-DUSP14, expressed in HEK293T cells (human); test: AlphaScreen or HTRF; Alpha technology; lysates of HEK293T cells cotransfected with Myc-DUSP14 and Flag-PRMT5, anti-Myc acceptor beads 60 min, then anti-Flag donor beads 60 min; proximity <200 nm
[6] = target: T4, endogenous DUSP14 of HEK293T cells (human (endogenous in HEK293T)) (UniProt O95147); test: co-IP; endogenous proteins in HEK293T lysate; normal serum as control
T4 sequence: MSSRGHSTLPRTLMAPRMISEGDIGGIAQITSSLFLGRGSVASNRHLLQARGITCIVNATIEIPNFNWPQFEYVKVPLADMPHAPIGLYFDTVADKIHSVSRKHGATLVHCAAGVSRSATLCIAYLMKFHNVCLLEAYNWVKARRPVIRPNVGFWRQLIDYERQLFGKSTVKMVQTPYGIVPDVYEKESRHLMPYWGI

[7] = target: T5, Flag-DUSP14 (3R→K) mutant, expressed in Jurkat (J-TAg clone) T cells (human) (UniProt O95147); test: co-IP; Jurkat (J-TAg clone) T cells transfected with Flag-DUSP14 wild-type or 3R→K, stimulated with anti-CD3 antibody; anti-Flag immunoprecipitation, immunoblot with anti-PRMT5
T5 sequence: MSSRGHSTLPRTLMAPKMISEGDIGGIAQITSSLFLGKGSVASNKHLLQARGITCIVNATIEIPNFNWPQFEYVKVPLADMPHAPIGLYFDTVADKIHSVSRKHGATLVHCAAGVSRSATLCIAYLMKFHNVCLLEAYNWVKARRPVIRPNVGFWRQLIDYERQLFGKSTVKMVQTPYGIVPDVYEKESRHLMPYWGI

[8] = target: T6, Flag-DUSP14 (wild-type), expressed in Jurkat (J-TAg clone) T cells (human) (UniProt O95147); test: as above
T6 sequence: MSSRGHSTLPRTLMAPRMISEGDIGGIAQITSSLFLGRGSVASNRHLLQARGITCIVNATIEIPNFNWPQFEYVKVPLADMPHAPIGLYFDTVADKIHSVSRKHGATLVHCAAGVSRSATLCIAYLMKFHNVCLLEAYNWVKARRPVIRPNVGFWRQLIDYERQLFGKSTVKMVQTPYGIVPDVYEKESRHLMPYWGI

[9] = target: T7, Flag-TAK1, expressed in HEK293T cells (UniProt O43318); test: proximity ligation; in situ PLA (Duolink) in cotransfected HEK293T cells with anti-Flag and anti-Myc antibodies; proximity <40 nm
T7 sequence: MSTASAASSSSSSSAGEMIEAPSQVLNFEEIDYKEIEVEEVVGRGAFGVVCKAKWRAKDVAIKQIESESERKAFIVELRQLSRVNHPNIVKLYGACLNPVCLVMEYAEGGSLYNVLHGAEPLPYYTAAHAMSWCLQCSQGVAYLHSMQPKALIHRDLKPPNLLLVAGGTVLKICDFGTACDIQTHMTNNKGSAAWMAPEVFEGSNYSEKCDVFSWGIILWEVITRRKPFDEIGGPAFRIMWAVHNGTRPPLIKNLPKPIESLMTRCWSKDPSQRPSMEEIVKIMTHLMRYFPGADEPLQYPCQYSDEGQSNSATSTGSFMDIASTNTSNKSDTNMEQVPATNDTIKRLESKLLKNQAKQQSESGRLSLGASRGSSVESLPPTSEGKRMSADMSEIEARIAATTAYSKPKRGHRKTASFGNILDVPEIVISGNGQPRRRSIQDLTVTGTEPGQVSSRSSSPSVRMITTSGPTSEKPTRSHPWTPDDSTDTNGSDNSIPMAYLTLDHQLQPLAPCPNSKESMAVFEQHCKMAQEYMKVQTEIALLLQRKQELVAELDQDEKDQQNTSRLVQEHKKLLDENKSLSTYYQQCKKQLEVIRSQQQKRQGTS

[10] = target: Flag-PRMT5, expressed in HEK293T cells (UniProt O14744); test: co-IP; HEK293T cells cotransfected with Myc-DUSP14 and Flag-PRMT5; lysates immunoprecipitated with anti-Flag or anti-DUSP14 antibody, immunoblot
[11] = target: T8, Flag-TAB1, expressed in HEK293T cells (UniProt Q15750); test: proximity ligation; in situ PLA (Duolink) in cotransfected HEK293T cells with anti-Flag and anti-Myc antibodies; proximity <40 nm
T8 sequence: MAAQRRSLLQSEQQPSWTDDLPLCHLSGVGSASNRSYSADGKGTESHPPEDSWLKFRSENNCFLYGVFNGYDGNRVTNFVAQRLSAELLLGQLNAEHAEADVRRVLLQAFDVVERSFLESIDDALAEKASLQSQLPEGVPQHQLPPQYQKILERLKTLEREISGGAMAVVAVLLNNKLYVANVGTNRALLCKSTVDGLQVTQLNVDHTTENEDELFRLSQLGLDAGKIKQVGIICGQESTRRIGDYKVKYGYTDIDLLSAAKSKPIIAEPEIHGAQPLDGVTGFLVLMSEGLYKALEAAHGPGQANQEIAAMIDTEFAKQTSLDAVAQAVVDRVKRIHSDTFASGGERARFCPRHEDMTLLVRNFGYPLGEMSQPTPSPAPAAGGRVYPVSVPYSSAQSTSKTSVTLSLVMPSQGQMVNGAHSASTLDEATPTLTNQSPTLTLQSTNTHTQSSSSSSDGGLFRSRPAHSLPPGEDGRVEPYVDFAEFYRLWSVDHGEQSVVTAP

binding [1]: binds
binding [2]: binds
binding [3]: binds
Molecule: Myc-PRMT5, expressed in HEK293T cells (from UniProt O14744 1-637) (enzyme)

binding [4]: binds
binding [5]: binds
Molecule: Flag-PRMT5, expressed in HEK293T cells (from UniProt O14744 1-637) (enzyme)

binding [6]: binds
Molecule: endogenous PRMT5 of HEK293T cells (from UniProt O14744 1-637) (enzyme)

binding [7]: binds
binding [8]: binds
Molecule: endogenous PRMT5 of Jurkat (J-TAg clone) T cells (from UniProt O14744 1-637) (enzyme)

binding [9]: binds
B1: Myc-TAB1, expressed in HEK293T cells (protein, UniProt Q15750 1-504)
chain: MAAQRRSLLQSEQQPSWTDDLPLCHLSGVGSASNRSYSADGKGTESHPPEDSWLKFRSENNCFLYGVFNGYDGNRVTNFVAQRLSAELLLGQLNAEHAEADVRRVLLQAFDVVERSFLESIDDALAEKASLQSQLPEGVPQHQLPPQYQKILERLKTLEREISGGAMAVVAVLLNNKLYVANVGTNRALLCKSTVDGLQVTQLNVDHTTENEDELFRLSQLGLDAGKIKQVGIICGQESTRRIGDYKVKYGYTDIDLLSAAKSKPIIAEPEIHGAQPLDGVTGFLVLMSEGLYKALEAAHGPGQANQEIAAMIDTEFAKQTSLDAVAQAVVDRVKRIHSDTFASGGERARFCPRHEDMTLLVRNFGYPLGEMSQPTPSPAPAAGGRVYPVSVPYSSAQSTSKTSVTLSLVMPSQGQMVNGAHSASTLDEATPTLTNQSPTLTLQSTNTHTQSSSSSSDGGLFRSRPAHSLPPGEDGRVEPYVDFAEFYRLWSVDHGEQSVVTAP

binding [10]: binds
binding [9]: no binding
binding [11]: binds
B2: Myc-DUSP14, expressed in HEK293T cells (enzyme, UniProt O95147 1-198)
chain: MSSRGHSTLPRTLMAPRMISEGDIGGIAQITSSLFLGRGSVASNRHLLQARGITCIVNATIEIPNFNWPQFEYVKVPLADMPHAPIGLYFDTVADKIHSVSRKHGATLVHCAAGVSRSATLCIAYLMKFHNVCLLEAYNWVKARRPVIRPNVGFWRQLIDYERQLFGKSTVKMVQTPYGIVPDVYEKESRHLMPYWGI
